Data source: PubChem BioAssay AID743454 (Peter MacCallum Cancer Centre, 2014)
Test: 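Knock-downs lowering viability or raising caspase 3/7 activity in vorinostat-treated resistant cells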 (primary screen). Cells: human HCT116-VR colon cancer cells, selected for vorinostat resistance. Reagent: siRNA pool against human genes, 40 nM siRNA pool. Timing: vorinostat for 24 h, read-out about 72 h after transfection. Challenge: vorinostat at 2.5 µM final. Measured: 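Two measures, CellTiter-Fluor viability and luminescent caspase 3/7 activity, each as fold change against same-plate mock wells, mean of duplicates, then screen-wide robust z-score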. Direction: viability robust z-score: higher = more viable cells than screen typical; caspase robust z-score: higher = more caspase 3/7 activity than screen typical. Hit rule: 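Hits are knock-downs in viability class RV1/RV2 or caspase class CA1/CA2, excluding ones that killed cells in the no-drug cell-count arm; hits then retested with single siRNAs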.
Here is a random part of about 18,000 reagents tested. Of all reagents, 450 (2.5%) were called active. 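Single biological run; no consistent viability z cut-off exists, so the class columns, not z-scores, define the calls.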 No sequences are given here.

gene	viability hit class	caspase hit class	viability robust z-score	caspase robust z-score	Call
CDK6 (GeneID 1021)	no change	no change	-0.33	-0.84	inactive
NEDD9 (GeneID 4739)	no change	no change	0.92	0.46	inactive
COQ4 (GeneID 51117)	no change	no change	1.68	0.68	inactive
DCTN4 (GeneID 51164)	no change	no change	-0.5	0.48	inactive
AP3B2 (GeneID 8120)	no change	no change	-0.38	1.39	inactive
SPTLC3 (GeneID 55304)	no change	no change	0.73	0.08	inactive
XRCC5 (GeneID 7520)	no change	no change	0.2	-0.54	inactive
FNDC1 (GeneID 84624)	no change	no change	-0.4	0.36	inactive
KRTAP4-12 (GeneID 83755)	no change	no change	0.64	0.35	inactive
ANXA6 (GeneID 309)	no change	no change	-0.6	-0.35	inactive
MATN3 (GeneID 4148)	no change	no change	-0.1	-0.58	inactive
FSCN3 (GeneID 29999)	no change	no change	-0.06	0.74	inactive
ADAM30 (GeneID 11085)	no change	no change	1.29	-0.6	inactive
TMEM176B (GeneID 28959)	no change	no change	-1.01	-0.56	inactive
OSBPL8 (GeneID 114882)	no change	no change	0.36	-0.52	inactive
PITPNC1 (GeneID 26207)	no change	no change	-1.15	-0.9	inactive
ZNF302 (GeneID 55900)	no change	no change	-1.36	-1.21	inactive
HSF4 (GeneID 3299)	no change	no change	-1.21	0.5	inactive
HDX (GeneID 139324)	no change	no change	-0.66	-1.23	inactive
GPR65 (GeneID 8477)	no change	no change	0.26	-1.12	inactive
FDPS (GeneID 2224)	no change	no change	0.14	-0.74	inactive
ZNF382 (GeneID 84911)	no change	no change	-1.61	1.55	inactive
MMAB (GeneID 326625)	no change	no change	-0.01	-1	inactive
DOK6 (GeneID 220164)	no change	no change	-0.42	-1.39	inactive
OR2F2 (GeneID 135948)	no change	no change	0.33	-0.84	inactive
ODAM (GeneID 54959)	no change	no change	-0.88	1.23	inactive
CDH6 (GeneID 1004)	no change	no change	0.64	-0.49	inactive
NSF (GeneID 4905)	no change	CA1 (caspase activation)	-0.44	9.07	active
ZCCHC17 (GeneID 51538)	no change	no change	0.86	0.3	inactive
GJA1 (GeneID 2697)	no change	no change	0.52	-0.97	inactive
ZDHHC3 (GeneID 51304)	no change	no change	-0.79	1.7	inactive
ZNF232 (GeneID 7775)	no change	no change	-0.08	0.52	inactive
MED23 (GeneID 9439)	no change	no change	0.12	-0.92	inactive
OVOS2P (GeneID 144203)	no change	no change	0.93	-0.64	inactive
OVOL2 (GeneID 58495)	no change	no change	0.39	4.49	inactive
CNOT10 (GeneID 25904)	no change	no change	0.7	0.45	inactive
MCOLN1 (GeneID 57192)	no change	no change	-0.06	0.38	inactive
INPP5E (GeneID 56623)	no change	no change	-0.23	1.34	inactive
ZPR1 (GeneID 8882)	no change	no change	-1.15	0.68	inactive
INO80B (GeneID 83444)	no change	no change	-0.55	-0.1	inactive
SPCS2P4 (GeneID 653566)	no change	no change	-0.21	-0.56	inactive
ORC6 (GeneID 23594)	no change	no change	1.25	-0.38	inactive

Next part; the last 10 above are carried over.
gene	viability hit class	caspase hit class	viability robust z-score	caspase robust z-score	Call
MED23 (GeneID 9439)	no change	no change	0.12	-0.92	inactive
OVOS2P (GeneID 144203)	no change	no change	0.93	-0.64	inactive
OVOL2 (GeneID 58495)	no change	no change	0.39	4.49	inactive
CNOT10 (GeneID 25904)	no change	no change	0.7	0.45	inactive
MCOLN1 (GeneID 57192)	no change	no change	-0.06	0.38	inactive
INPP5E (GeneID 56623)	no change	no change	-0.23	1.34	inactive
ZPR1 (GeneID 8882)	no change	no change	-1.15	0.68	inactive
INO80B (GeneID 83444)	no change	no change	-0.55	-0.1	inactive
SPCS2P4 (GeneID 653566)	no change	no change	-0.21	-0.56	inactive
ORC6 (GeneID 23594)	no change	no change	1.25	-0.38	inactive
DOCK8-AS1 (GeneID 157983)	no change	no change	-0.08	0.5	inactive
ARSA (GeneID 410)	no change	CA2 (caspase activation)	-1.21	5.64	active
TMEM236 (GeneID 653567)	no change	no change	0.62	-0.82	inactive
EXOSC2 (GeneID 23404)	no change	no change	-1.57	-1.21	inactive
FSCN1 (GeneID 6624)	no change	no change	-0.32	1.22	inactive
GPHA2 (GeneID 170589)	no change	no change	0.3	-0.61	inactive
SNX3 (GeneID 8724)	no change	no change	2.02	0.24	inactive
EFR3A (GeneID 23167)	no change	no change	-0.83	-0.86	inactive
PGBDF (GeneID 146853)	no change	no change	-2.1	2.11	inactive
NME1 (GeneID 4830)	no change	no change	0.31	-0.49	inactive
TRARG1 (GeneID 286753)	no change	no change	-0.01	0.26	inactive
FBXL2 (GeneID 25827)	no change	no change	-1.71	2.5	inactive
ADAT1 (GeneID 23536)	no change	no change	1.06	-0.49	inactive
PHF3 (GeneID 23469)	no change	no change	-0.92	-1.06	inactive
TMEM68 (GeneID 137695)	no change	no change	-0.09	-0.57	inactive
SRCIN1 (GeneID 80725)	no change	no change	-0.26	-0.07	inactive
SLC30A6 (GeneID 55676)	no change	no change	0.86	1.41	inactive
STK11 (GeneID 6794)	no change	CA1 (caspase activation)	-1.78	7.31	active
MCM7 (GeneID 4176)	no change	no change	1.4	-0.19	inactive
ZC3HC1 (GeneID 51530)	no change	no change	-0.31	-0.3	inactive
KLRC2 (GeneID 3822)	no change	no change	2.42	-0.11	inactive
PAPLN (GeneID 89932)	no change	no change	0.38	-1.02	inactive
ZSCAN20 (GeneID 7579)	no change	no change	-0.65	-0.3	inactive
HAUS4 (GeneID 54930)	no change	no change	-1.92	1.67	inactive
NTPCR (GeneID 84284)	no change	no change	-0.24	-0.41	inactive
IFT43 (GeneID 112752)	no change	no change	-0.17	0.04	inactive
CFDP1 (GeneID 10428)	no change	no change	0.61	0.27	inactive
IL17RB (GeneID 55540)	no change	no change	-0.86	-0.16	inactive
SULF1 (GeneID 23213)	no change	no change	0.6	-0.98	inactive
ZCCHC24 (GeneID 219654)	no change	no change	1.73	-0.27	inactive
CLEC18C (GeneID 283971)	no change	no change	0.57	-0.82	inactive
